PMC1802080
Results are given in words; binding and its absence hold for the method and conditions named. Binding seen in cells or lysates may run through a third protein. Some entries that bind do so weakly or less than the wild type.

Chains of the proteins cited; added tags and fusions are not shown. Residues count along the entry.
UniProt Q8CGU6, residues 35-708: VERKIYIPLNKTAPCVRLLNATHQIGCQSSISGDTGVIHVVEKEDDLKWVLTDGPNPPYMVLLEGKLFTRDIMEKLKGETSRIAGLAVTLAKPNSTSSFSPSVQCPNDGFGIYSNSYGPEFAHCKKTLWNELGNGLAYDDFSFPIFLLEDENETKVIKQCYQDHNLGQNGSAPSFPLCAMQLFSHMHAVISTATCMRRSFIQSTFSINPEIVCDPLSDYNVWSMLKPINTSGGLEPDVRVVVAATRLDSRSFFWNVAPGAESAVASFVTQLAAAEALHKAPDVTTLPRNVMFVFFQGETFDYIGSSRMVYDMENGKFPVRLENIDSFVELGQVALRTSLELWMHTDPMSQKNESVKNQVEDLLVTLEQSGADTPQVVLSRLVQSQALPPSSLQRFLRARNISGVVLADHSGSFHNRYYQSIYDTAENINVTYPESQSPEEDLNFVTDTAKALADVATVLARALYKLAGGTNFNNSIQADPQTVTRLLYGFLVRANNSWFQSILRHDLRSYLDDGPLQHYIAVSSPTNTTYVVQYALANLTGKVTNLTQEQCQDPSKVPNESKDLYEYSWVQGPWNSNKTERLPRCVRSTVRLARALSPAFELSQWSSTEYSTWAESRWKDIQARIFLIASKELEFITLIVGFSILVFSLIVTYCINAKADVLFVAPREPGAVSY

Target: T1, APP-BP1 (amyloid precursor protein binding protein-1), endogenous in rat brain (rat (endogenous in adult Sprague Dawley rat brain)) (UniProt Q9Z1A5)
T1 sequence: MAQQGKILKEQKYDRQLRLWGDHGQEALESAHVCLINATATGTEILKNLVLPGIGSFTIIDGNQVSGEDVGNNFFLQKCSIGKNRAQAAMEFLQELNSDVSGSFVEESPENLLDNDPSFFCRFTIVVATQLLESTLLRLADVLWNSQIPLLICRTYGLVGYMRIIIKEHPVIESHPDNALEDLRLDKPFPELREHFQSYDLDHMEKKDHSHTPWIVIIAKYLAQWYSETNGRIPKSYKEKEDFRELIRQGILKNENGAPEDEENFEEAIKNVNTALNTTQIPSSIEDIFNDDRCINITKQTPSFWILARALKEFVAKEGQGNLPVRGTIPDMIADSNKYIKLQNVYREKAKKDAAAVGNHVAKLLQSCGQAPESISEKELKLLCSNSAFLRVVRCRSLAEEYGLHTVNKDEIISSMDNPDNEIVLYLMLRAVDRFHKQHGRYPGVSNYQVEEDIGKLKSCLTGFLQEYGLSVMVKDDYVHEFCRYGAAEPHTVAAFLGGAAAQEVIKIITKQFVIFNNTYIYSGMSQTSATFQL
Assay: co-IP; rat brain membrane fraction proteins extracted in 20 mM Tris pH 8, 1 mM MgCl2, NaCl, 2% CHAPS; BP339 (anti-APP-BP1) prebound to protein G beads; blot with anti-PS1 (AB5308), anti-PS1-NTF or anti-nicastrin; controls beads alone or BP339 pre-immune antibody

- binding: binds
Substance: nicastrin, endogenous in rat brain (from UniProt Q8CGU6 35-708)
